PubChem BioAssay AID588590 (National Center for Advancing Translational Sciences (NCATS), 2011)
The campaign covered roughly 390,000 compounds. About 4,000 (1%) were called active. The shares of active, inactive and inconclusive entries below differ from those in the screen. Calls come from the whole dose curve; as a rule, active = well fitted inhibition curve with a large enough effect; inconclusive = small, poorly fitted or top-dose-only effect, or another doubt; inactive = no such curve, though single readings can be large or run the other way. Where the call is inconclusive, the potency comes from a doubtful curve fit.

The chains behind the UniProt entries cited, without tags or fusion partners. Where a name states a change or a piece, a line headed by the entry shows the natural chain unless it says otherwise.
UniProt Q9UNA4: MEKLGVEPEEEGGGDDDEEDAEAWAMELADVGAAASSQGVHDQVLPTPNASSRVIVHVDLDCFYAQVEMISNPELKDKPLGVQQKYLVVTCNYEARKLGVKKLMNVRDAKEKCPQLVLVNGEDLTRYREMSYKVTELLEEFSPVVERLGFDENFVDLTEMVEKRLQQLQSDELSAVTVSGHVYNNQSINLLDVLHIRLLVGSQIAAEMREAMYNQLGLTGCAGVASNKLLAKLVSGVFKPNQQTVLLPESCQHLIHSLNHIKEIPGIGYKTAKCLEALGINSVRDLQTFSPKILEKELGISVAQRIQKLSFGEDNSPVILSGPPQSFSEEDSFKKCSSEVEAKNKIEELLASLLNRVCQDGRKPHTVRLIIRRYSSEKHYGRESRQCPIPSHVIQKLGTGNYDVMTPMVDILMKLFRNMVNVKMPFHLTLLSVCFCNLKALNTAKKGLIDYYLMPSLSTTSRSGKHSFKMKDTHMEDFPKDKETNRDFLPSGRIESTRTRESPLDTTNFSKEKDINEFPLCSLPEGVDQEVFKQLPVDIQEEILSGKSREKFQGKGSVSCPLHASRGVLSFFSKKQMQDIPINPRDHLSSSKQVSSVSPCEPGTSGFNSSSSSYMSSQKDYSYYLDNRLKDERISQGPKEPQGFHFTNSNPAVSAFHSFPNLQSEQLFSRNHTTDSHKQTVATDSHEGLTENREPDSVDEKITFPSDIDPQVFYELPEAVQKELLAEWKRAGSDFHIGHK

Each compound was assayed against DNA polymerase iota (Homo sapiens) (UniProt Q9UNA4) (assay: qHTS for Inhibitors of Polymerase Iota). Conditions: Pol iota fluorescent replication assay, 10 min; series mostly up to 115 µM.
Outline: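 Pol iota at 10 nM preincubated 15 min with compounds at room temperature; reaction started with fluorescent substrate, 50 nM final. Fluorescence read kinetically at 0 and 10 min; buffer-only wells as negative control.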
Potency is the fitted concentration of half-maximal effect.

Question: `CC(C)N1C(=O)N(c2cccc(Cl)c2)C(C)(O)CC1(C)C` (stereo not drawn) was tested. Which Potency did it give?
Answer: Its Potency is inconclusive: 89.1 µM [inhibitor, single point].

Question: With `O=C(Nc1ccc2nn(-c3ccccc3)nc2c1)c1cc2ccccc2o1` as the compound, how does the Potency read?
Answer: Its Potency is inconclusive: 100 µM [inhibitor, single point].

Question: For `Cc1ccc(S(=O)(=O)Nc2ccc3c(c2)CCCN3C(=O)c2cccs2)cc1`, which Potency is on record?
Answer: Its Potency is “inactive”.

Question: How did the Potency turn out when `O=C(COC(=O)C1CC2C=CC1C2)Nc1cccc(S(=O)(=O)N2CCCCCC2)c1` (stereo not drawn) was run?
Answer: Its Potency is inconclusive: 79.4 µM [inhibitor, partial curve].

Question: With `Cc1ccc(NC(=O)Cn2nnc(C(=O)NCc3ccccc3)c2N)cc1C` as the compound, how does the Potency read?
Answer: Its Potency is inconclusive: 39.8 µM [inhibitor, single point].

Question: `CN1C=C/C(=C\c2cc[n+](C)c3ccccc23)c2ccccc21` was tested. Which Potency did it give?
Answer: The Potency was “inactive”.

Question: `CCC1(CC)C(=O)NC(=O)NC1=Nc1ccccc1` was tested. Which Potency did it give?
Answer: The Potency was inconclusive: 79.4 µM [inhibitor, partial curve, poor fit].

Question: How did the Potency turn out when `O=C(Cn1cc(C(F)(F)F)cc(Cl)c1=O)NC1CCS(=O)(=O)C1` (stereo not drawn) was run?
Answer: The Potency was “inactive”.

Question: For `O=C1CCCC2=C1C(c1ccc(O)c(O)c1)c1c(ccc3ncccc13)N2` (stereo not drawn), which Potency is on record?
Answer: Its Potency is inconclusive: 12.6 µM [inhibitor, full curve, poor fit].

Question: `O=C1c2ccccc2C(Nc2cccc(C(F)(F)F)c2)N1Cc1ccco1` (stereo not drawn) was tested. Which Potency did it give?
Answer: Its Potency is inconclusive: 0.708 µM [inhibitor, full curve, poor fit].

Question: With `CC(=O)N1/C(=C/c2ccc(N(C)C)cc2)C(=O)c2ccccc21` as the compound, how does the Potency read?
Answer: Its Potency is inconclusive: 25.1 µM [inhibitor, partial curve, poor fit].

Question: How did the Potency turn out when `C=CCOc1cccc(C(=O)N2CCC(CCC(=O)NC3CC3)CC2)c1` was run?
Answer: The Potency was inconclusive: 35.5 µM [inhibitor, full curve, poor fit].

Question: Which Potency does the source give for `C=CCSc1nnc(NC(=O)c2ccc(NC(C)=O)cc2)s1` here?
Answer: Its Potency is inconclusive: 79.4 µM [inhibitor, partial curve, poor fit].

Question: For `CS(=O)(=O)N1CCC(N2CCN(Cc3ccccc3)C(=O)C2=O)CC1`, which Potency is on record?
Answer: Its Potency is “inactive”.

Question: For `CCc1ccc(-c2nc(CS(=O)CC(=O)NCCc3ccc(Cl)cc3)c(C)o2)cc1` (stereo not drawn), which Potency is on record?
Answer: The Potency was “inactive”.

Question: Which Potency does the source give for `Cc1ccc(Sc2ccc(/C=C3/C(=O)NN(c4ccccc4)C3=O)o2)cc1` here?
Answer: The Potency was “inactive”.

Question: Which Potency does the source give for `N#Cc1c(C(F)(F)F)cc(-c2ccccc2Cl)[nH]c1=O` here?
Answer: The Potency was inconclusive: 28.2 µM [inhibitor, partial curve].

Question: `CCOC(=O)CCSc1nc(-c2ccc3c(c2)OCO3)cc(C(F)(F)F)c1C#N` was tested. Which Potency did it give?
Answer: The Potency was inconclusive: 89.1 µM [inhibitor, partial curve, poor fit].

Question: `Cc1cc(NC(=O)CN2CCCCC2C)no1` (stereo not drawn) was tested. Which Potency did it give?
Answer: The Potency was inconclusive: 35.5 µM [inhibitor, single point].

Question: For `CCc1cccc(NC(=O)C(c2ccccc2)N2Cc3ccccc3C2=O)c1` (stereo not drawn), which Potency is on record?
Answer: Its Potency is “inactive”.

Question: `COc1cc(C)c(C)cc1S(=O)(=O)Nc1cccc(-c2ccc(N3CCOCC3)nn2)c1` was tested. Which Potency did it give?
Answer: The Potency was “inactive”.

Question: `CCOCc1ccccc1Nc1ncnc2onc(-c3ccc(Cl)cc3)c12` was tested. Which Potency did it give?
Answer: Its Potency is “inactive”.

Question: With `CN(C)CCNC(=O)c1coc(=O)c(Br)c1` as the compound, how does the Potency read?
Answer: Its Potency is inconclusive: 14.1 µM [inhibitor, single point].

Question: For `CC(=O)Nc1sc(/C(C#N)=C/c2ccc(Cl)c(Cl)c2)nc1-c1ccc(C)cc1`, which Potency is on record?
Answer: The Potency was inconclusive: 11.2 µM [inhibitor, partial curve, poor fit].

Question: With `O=S(=O)(c1ccc(Br)cc1Cl)N1CCN(CCO)CC1` as the compound, how does the Potency read?
Answer: Its Potency is “inactive”.

Question: How did the Potency turn out when `CCc1ccc(NC(=O)CSC2=Nc3ccccc3C3=NC(CC(=O)NCc4ccccc4)C(=O)N23)cc1` (stereo not drawn) was run?
Answer: Its Potency is inconclusive: 39.8 µM [inhibitor, partial curve, poor fit].

Question: With `O=C(Cn1ncc2c3ccccc3n(Cc3cccc(Cl)c3)c2c1=O)NC1CCCCCC1` as the compound, how does the Potency read?
Answer: Its Potency is inconclusive: 79.4 µM [inhibitor, partial curve, poor fit].

Question: Which Potency does the source give for `CN1CCN(C(=O)C2CCC(=O)N(Cc3cccc(C(F)(F)F)c3)C2)CC1` (stereo not drawn) here?
Answer: The Potency was inconclusive: 89.1 µM [inhibitor, single point].

Question: For `Nc1nc(-c2ccc(NC(=O)c3ccco3)cc2)cs1`, which Potency is on record?
Answer: The Potency was “inactive”.

Question: With `O=C1C(Cc2ccccc2)Nc2ncnc(N3CCCCC3)c2N1Cc1ccccc1` (stereo not drawn) as the compound, how does the Potency read?
Answer: The Potency was inconclusive: 11.2 µM [inhibitor, partial curve, poor fit].

Question: For `O=[N+]([O-])c1cccc(/C=N/NS(=O)(=O)c2ccccc2)c1`, which Potency is on record?
Answer: The Potency was inconclusive: 89.1 µM [inhibitor, partial curve, poor fit].

Question: `CCN(CC)c1nc(N)c2c(N)n(-c3ccccc3C)c(=S)c(C#N)c2c1C#N` was tested. Which Potency did it give?
Answer: Its Potency is inconclusive: 25.1 µM [inhibitor, full curve, poor fit].

Question: For `O=c1c(=Nc2ccccc2O)c(=O)c2ccccc12`, which Potency is on record?
Answer: The Potency was inconclusive: 7.08 µM [inhibitor, full curve, poor fit].

Question: For `Cc1c2cnn(CC(=O)NCCc3ccccc3)c(=O)c2c(C)n1Cc1ccccc1`, which Potency is on record?
Answer: The Potency was “inactive”.

Question: For `COc1ccc(C(=O)/C=C/c2ccc(OC)c(O)c2)c(F)c1`, which Potency is on record?
Answer: Its Potency is inconclusive: 22.4 µM [inhibitor, full curve, poor fit].

Question: For `COc1cc(NC(=O)CSc2ncc(S(=O)(=O)c3ccc(Br)cc3)c(=O)[nH]2)cc(OC)c1`, which Potency is on record?
Answer: The Potency was inconclusive: 63.1 µM [inhibitor, partial curve, poor fit].

Question: With `COc1cccc(C2=NOC(C(=O)NCCN3CCOCC3)C2)c1` (stereo not drawn) as the compound, how does the Potency read?
Answer: Its Potency is inconclusive: 112 µM [inhibitor, partial curve, poor fit].

Question: With `CCN(CC)S(=O)(=O)c1ccc2oc(C(=O)N(C)Cc3ccccc3)c(C)c2c1` as the compound, how does the Potency read?
Answer: Its Potency is inconclusive: 89.1 µM [inhibitor, single point].

Question: For `N#CC1=C(N)Oc2ccc3ccc(O)cc3c2C1c1cccnc1` (stereo not drawn), which Potency is on record?
Answer: The Potency was inconclusive: 100 µM [inhibitor, partial curve, poor fit].

Question: Which Potency does the source give for `OCCN1CCN(c2ncnc3nc[nH]c23)CC1` here?
Answer: Its Potency is inconclusive: 70.8 µM [inhibitor, single point].

Question: With `Cc1cc2oc(C(=O)Nc3ccc(S(=O)(=O)Nc4ncccn4)cc3)c(C)c2cc1Cl` as the compound, how does the Potency read?
Answer: Its Potency is “inactive”.

Question: For `COCC1CCN(Cc2c(C(=O)N3CCc4ccccc4C3)nc3ccc(Cl)cn23)C1` (stereo not drawn), which Potency is on record?
Answer: Its Potency is active: 39.8 µM.

Question: With `Cc1ccc2c(c1)sc(C)[n+]2CCCS(=O)(=O)[O-]` as the compound, how does the Potency read?
Answer: Its Potency is inconclusive: 39.8 µM [inhibitor, partial curve, poor fit].

Question: How did the Potency turn out when `CC(=O)/C=C\c1ccccc1OC(=O)c1cc2ccccc2oc1=O` was run?
Answer: Its Potency is inconclusive: 14.1 µM [inhibitor, partial curve].

Question: For `CCC(=O)N(CCC(c1ccco1)C(C)C)Cc1ccccc1` (stereo not drawn), which Potency is on record?
Answer: Its Potency is “inactive”.

Question: With `COc1cc(CN2CCN(S(=O)(=O)c3ccccc3)CC2)cc(OC)c1O` as the compound, how does the Potency read?
Answer: The Potency was “inactive”.

Question: How did the Potency turn out when `CNc1ccc(Br)cc(C(=O)/C=C/c2ccc(Cl)cc2Cl)c1=O` was run?
Answer: Its Potency is inconclusive: 0.794 µM [inhibitor, full curve, poor fit].

Question: For `Cc1cc(C)c(C)c(S(=O)(=O)NCCCN2CCOCC2)c1C`, which Potency is on record?
Answer: Its Potency is inconclusive: 100 µM [inhibitor, single point].

Question: With `COC(=O)c1cc(C)[nH]c2c(C)cc3nc4ccccc4c3c12` as the compound, how does the Potency read?
Answer: The Potency was “inactive”.

Question: With `Cc1coc2c(C)c3oc(=O)c(CCC(=O)N(C)CC(=O)O)c(C)c3cc12` as the compound, how does the Potency read?
Answer: Its Potency is “inactive”.

Question: `COc1ccc(S(=O)(=O)N2CCCC(C(=O)NCc3ccco3)C2)cc1Cl` (stereo not drawn) was tested. Which Potency did it give?
Answer: The Potency was inconclusive: 89.1 µM [inhibitor, single point].

Question: With `CCc1cccc(C)c1NC(=O)c1cccc(C(=O)Nc2c(C)cccc2CC)c1` as the compound, how does the Potency read?
Answer: The Potency was inconclusive: 89.1 µM [inhibitor, partial curve, poor fit].

Question: For `CCC(=O)c1ccc(SC(=O)N(C)C)cc1O`, which Potency is on record?
Answer: Its Potency is “inactive”.

Question: For `O=C(CCCCCCCC(=O)c1ccccc1)c1ccccc1`, which Potency is on record?
Answer: Its Potency is inconclusive: 79.4 µM [inhibitor, partial curve, poor fit].

Question: How did the Potency turn out when `COc1ccccc1C(=O)Nc1ccc2c(c1)CCCN2C(=O)c1cccs1` was run?
Answer: The Potency was inconclusive: 4.47 µM [inhibitor, partial curve, poor fit].

Question: `CCc1ccccc1N(C)C(=O)c1cc2c(=O)oc3ccccc3c2s1` was tested. Which Potency did it give?
Answer: The Potency was “inactive”.

Question: Which Potency does the source give for `COc1ccc(OC)c(NC(=O)c2cnn(-c3ccc(C)cc3)c2C2CCNCC2)c1` here?
Answer: Its Potency is “inactive”.

Question: For `CCc1ccc(N=CC2=C(O)CC(c3ccco3)CC2=O)cc1` (stereo not drawn), which Potency is on record?
Answer: Its Potency is inconclusive: 3.55 µM [inhibitor, full curve, poor fit].

Question: With `COc1ccc(S(=O)(=O)N2CCn3c2nc2ccccc23)cc1` as the compound, how does the Potency read?
Answer: The Potency was inconclusive: 89.1 µM [inhibitor, partial curve, poor fit].

Question: With `O=C(COC(=O)c1ccc([N+](=O)[O-])o1)NC12CC3CC(CC(C3)C1)C2` as the compound, how does the Potency read?
Answer: The Potency was inconclusive: 28.2 µM [inhibitor, single point].

Question: For `O=C(NNC(=O)c1ccc(-c2ccccc2)cc1)Nc1ccccc1`, which Potency is on record?
Answer: Its Potency is inconclusive: 100 µM [inhibitor, partial curve, poor fit].

Question: For `COc1ccc(OC)c(CCNC(=O)C2CCN(c3nnc(-n4cccc4)s3)CC2)c1`, which Potency is on record?
Answer: Its Potency is inconclusive: 50.1 µM [inhibitor, partial curve, poor fit].

Question: For `COc1ccc(NC(=S)NC(=O)c2ccc3c(c2)OCCO3)cc1`, which Potency is on record?
Answer: Its Potency is inconclusive: 100 µM [inhibitor, partial curve, poor fit].

Question: For `CC(C(=O)N1CCOCC1)(c1ccccc1)c1ccccc1`, which Potency is on record?
Answer: Its Potency is “inactive”.

Question: `COc1cccc(NC(=O)C(Cc2ccccc2)NS(=O)(=O)c2ccc3c(c2)oc(=O)n3C)c1` (stereo not drawn) was tested. Which Potency did it give?
Answer: The Potency was “inactive”.

Question: `O=C(Nc1cccnc1Cl)c1cc(-c2cccc(Cl)c2)on1` was tested. Which Potency did it give?
Answer: Its Potency is inconclusive: 70.8 µM [inhibitor, single point].

Question: With `CCOc1ccc(CCNC(=O)CCc2cn(Cc3ccc(F)cc3)c3ccccc23)cc1` as the compound, how does the Potency read?
Answer: The Potency was “inactive”.

Question: How did the Potency turn out when `Cc1oc2c(c1C(=O)O)C(=O)c1ccccc1C2=O` was run?
Answer: The Potency was inconclusive: 31.6 µM [inhibitor, single point].
